Counter-ions that a name gives are not always drawn. The list shows a part of the results. The calls rarely recur for the same compound in another form.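 In K562 cells expressing nanoluciferase-fused kinases, luminescence was recorded at 4 h intervals between 2 and 18 h, normalized as percent of control with DMSO at 100% and a positive control at 0%. A significant (2 sigma) signal drop marks a time point as decreased. The authors' rule for a hit is not shown and takes in more than the number of time points.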
Legend:
Experiment in all cases: kinase-Nluc reporter destabilization hit call (1 = scored as downregulated) (binary); higher = compound decreases kinase abundance
Settings in all cases: K562; 2-18 h
[1] = target: EGFR (UniProt P00533)
[2] = target: EGFR_G719S (UniProt P00533)
[3] = target: EGFR_G719S_T790M (UniProt P00533)
[4] = target: EGFR_L718V (UniProt P00533)
[5] = target: EGFR_L858R (UniProt P00533)
[6] = target: EGFR_L861Q (UniProt P00533)
[7] = target: EGFR_T790M (UniProt P00533)
[8] = target: EPHA2 (UniProt P29317)
[9] = target: ERBB3 (UniProt P21860)
[10] = target: ERBB4_R711C (clone: ERBB4_mut) (UniProt Q15303)
[11] = target: ERN1 (UniProt O75460)
[12] = target: FGFR1 (UniProt P11362)
[13] = target: FGFR2 (UniProt P21802)
[14] = target: FGFR3 (UniProt P22607)
[15] = target: FGR (UniProt P09769)
[16] = target: FLT3 (UniProt P36888)
[17] = target: FYN (UniProt P06241)
[18] = target: GSK3A (UniProt P49840)
[19] = target: HER2 (UniProt P04626)
[20] = target: INSRR (UniProt P14616)

The chains behind the UniProt entries cited, without tags or fusion partners. Where a name states a change or a piece, a line headed by the entry shows the natural chain unless it says otherwise.
UniProt P29317, whole entry: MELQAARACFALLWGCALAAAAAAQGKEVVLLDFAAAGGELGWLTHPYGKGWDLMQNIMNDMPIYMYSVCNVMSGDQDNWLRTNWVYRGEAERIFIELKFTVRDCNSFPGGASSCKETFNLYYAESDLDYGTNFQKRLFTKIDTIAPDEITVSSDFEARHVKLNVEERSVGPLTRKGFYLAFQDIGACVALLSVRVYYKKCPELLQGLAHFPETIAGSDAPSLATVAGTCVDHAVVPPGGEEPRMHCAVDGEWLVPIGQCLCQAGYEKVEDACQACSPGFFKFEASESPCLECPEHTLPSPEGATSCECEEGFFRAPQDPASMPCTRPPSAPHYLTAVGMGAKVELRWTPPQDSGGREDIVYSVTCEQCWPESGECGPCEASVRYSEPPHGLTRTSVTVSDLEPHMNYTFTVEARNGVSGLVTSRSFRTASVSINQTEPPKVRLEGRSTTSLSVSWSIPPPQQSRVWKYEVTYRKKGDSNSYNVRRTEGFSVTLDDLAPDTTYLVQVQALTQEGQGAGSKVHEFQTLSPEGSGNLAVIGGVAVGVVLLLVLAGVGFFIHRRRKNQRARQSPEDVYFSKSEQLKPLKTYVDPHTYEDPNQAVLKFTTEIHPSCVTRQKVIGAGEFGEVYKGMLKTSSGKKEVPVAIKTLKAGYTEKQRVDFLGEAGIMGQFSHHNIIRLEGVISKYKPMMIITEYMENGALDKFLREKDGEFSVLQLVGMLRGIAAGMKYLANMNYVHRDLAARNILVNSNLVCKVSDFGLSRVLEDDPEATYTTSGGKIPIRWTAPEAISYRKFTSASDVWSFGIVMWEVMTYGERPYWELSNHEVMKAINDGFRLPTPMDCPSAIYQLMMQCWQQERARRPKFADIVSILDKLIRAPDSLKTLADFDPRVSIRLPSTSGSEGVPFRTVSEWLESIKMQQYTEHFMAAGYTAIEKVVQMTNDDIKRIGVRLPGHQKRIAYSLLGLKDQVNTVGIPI
UniProt P21860, whole entry: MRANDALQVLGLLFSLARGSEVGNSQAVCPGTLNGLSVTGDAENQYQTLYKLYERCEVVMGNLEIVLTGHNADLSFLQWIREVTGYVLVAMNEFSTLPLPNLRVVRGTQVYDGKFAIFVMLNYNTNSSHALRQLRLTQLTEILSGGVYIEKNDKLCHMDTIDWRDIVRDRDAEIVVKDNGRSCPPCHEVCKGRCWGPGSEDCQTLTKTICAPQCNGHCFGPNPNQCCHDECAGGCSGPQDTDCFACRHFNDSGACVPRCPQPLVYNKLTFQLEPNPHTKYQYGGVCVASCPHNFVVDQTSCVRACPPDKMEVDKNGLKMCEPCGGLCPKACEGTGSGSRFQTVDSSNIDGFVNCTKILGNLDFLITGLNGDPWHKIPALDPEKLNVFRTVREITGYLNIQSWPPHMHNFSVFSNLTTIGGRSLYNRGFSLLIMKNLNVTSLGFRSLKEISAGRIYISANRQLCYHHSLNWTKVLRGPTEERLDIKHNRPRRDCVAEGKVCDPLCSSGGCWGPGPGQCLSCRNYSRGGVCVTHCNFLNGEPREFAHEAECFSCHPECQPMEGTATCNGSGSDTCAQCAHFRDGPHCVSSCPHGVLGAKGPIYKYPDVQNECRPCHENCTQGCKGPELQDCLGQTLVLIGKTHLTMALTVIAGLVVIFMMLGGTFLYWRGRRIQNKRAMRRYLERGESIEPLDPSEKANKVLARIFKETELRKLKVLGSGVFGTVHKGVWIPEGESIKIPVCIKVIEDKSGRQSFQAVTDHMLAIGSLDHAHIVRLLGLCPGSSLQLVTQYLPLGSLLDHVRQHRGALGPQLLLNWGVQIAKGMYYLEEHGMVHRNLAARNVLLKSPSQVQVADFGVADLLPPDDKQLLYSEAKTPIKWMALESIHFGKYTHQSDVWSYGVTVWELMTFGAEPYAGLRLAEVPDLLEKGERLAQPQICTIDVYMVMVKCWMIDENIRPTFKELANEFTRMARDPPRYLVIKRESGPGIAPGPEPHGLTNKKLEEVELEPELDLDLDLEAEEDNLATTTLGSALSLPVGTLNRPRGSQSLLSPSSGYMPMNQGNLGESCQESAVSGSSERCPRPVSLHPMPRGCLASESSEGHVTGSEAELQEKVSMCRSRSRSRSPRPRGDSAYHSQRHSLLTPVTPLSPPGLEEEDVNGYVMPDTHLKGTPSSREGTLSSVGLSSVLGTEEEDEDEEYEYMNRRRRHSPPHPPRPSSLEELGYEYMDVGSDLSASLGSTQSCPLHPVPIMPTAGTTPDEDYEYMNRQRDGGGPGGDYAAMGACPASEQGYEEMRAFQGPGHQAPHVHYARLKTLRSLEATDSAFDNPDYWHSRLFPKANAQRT
UniProt Q15303, whole entry R711C: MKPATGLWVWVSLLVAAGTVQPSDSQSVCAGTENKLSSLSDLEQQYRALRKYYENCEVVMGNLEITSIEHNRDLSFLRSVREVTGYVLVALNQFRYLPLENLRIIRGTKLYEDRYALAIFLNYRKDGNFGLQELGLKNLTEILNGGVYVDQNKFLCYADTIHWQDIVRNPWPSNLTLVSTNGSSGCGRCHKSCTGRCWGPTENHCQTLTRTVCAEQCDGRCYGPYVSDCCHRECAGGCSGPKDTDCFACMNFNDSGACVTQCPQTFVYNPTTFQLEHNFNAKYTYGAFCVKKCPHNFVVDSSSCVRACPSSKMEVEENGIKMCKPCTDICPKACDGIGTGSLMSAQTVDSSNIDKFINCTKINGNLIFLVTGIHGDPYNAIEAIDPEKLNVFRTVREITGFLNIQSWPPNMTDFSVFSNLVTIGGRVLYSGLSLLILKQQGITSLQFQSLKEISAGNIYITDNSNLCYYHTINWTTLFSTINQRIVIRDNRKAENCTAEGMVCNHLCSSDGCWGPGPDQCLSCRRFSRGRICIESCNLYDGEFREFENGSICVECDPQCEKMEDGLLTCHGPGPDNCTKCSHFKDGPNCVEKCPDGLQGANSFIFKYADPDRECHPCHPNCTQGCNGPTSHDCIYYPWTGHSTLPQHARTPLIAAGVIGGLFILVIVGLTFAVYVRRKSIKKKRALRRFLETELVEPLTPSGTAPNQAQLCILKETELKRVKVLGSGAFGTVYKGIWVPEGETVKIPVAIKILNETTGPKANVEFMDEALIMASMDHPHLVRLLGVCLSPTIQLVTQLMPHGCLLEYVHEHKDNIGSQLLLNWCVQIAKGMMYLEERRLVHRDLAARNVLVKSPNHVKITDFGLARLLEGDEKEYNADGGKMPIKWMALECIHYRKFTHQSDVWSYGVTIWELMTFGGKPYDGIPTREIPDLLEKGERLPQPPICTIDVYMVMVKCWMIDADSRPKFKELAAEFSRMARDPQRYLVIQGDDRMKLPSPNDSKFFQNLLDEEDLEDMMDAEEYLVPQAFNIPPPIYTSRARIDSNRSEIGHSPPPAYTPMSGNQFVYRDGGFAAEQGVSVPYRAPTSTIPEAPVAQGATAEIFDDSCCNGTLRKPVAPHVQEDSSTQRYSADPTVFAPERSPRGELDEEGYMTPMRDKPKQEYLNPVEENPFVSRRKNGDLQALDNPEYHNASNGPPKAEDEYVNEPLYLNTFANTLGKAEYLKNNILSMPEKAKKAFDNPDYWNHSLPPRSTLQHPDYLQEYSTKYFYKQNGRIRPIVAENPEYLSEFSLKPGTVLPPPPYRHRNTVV
UniProt P21802, whole entry, looked up: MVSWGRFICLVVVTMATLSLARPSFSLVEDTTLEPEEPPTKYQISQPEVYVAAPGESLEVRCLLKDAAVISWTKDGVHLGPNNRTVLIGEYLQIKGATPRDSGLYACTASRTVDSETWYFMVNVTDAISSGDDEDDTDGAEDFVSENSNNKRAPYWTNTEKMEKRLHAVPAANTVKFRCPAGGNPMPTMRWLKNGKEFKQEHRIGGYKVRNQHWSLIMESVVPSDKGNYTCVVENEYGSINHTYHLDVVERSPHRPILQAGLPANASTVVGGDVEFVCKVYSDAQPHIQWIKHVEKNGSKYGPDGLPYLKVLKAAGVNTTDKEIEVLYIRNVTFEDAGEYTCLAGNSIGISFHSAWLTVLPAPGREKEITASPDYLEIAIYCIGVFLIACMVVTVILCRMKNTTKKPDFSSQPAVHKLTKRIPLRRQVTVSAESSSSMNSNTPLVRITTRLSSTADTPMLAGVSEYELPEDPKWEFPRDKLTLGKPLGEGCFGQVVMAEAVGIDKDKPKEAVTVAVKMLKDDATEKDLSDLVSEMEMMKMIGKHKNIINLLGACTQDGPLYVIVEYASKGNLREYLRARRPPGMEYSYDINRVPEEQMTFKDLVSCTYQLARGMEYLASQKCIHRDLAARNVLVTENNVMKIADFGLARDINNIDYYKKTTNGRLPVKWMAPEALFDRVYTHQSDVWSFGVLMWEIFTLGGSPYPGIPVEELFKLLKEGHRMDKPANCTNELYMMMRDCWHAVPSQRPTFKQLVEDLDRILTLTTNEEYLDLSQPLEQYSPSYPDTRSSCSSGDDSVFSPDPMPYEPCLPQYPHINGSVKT
UniProt P22607, whole entry, looked up: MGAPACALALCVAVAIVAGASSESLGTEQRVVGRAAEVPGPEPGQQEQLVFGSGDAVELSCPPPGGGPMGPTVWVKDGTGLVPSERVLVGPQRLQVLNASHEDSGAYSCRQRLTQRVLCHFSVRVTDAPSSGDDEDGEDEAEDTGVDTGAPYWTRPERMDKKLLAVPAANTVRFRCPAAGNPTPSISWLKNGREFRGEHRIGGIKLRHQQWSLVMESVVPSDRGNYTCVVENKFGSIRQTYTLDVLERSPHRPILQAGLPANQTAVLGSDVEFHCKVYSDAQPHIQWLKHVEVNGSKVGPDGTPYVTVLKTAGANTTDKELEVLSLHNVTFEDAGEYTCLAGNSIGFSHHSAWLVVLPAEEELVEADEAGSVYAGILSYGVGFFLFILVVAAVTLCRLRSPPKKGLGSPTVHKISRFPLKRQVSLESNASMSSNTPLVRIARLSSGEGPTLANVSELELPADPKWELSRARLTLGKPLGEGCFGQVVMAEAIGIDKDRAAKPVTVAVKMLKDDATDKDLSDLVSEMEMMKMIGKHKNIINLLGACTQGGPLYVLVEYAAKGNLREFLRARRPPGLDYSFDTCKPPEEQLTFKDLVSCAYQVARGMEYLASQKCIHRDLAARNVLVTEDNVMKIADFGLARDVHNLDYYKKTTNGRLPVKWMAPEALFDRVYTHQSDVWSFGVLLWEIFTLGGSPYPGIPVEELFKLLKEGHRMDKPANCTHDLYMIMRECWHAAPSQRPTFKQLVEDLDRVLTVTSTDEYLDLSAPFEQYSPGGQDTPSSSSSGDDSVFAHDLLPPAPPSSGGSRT
UniProt P06241, whole entry, looked up: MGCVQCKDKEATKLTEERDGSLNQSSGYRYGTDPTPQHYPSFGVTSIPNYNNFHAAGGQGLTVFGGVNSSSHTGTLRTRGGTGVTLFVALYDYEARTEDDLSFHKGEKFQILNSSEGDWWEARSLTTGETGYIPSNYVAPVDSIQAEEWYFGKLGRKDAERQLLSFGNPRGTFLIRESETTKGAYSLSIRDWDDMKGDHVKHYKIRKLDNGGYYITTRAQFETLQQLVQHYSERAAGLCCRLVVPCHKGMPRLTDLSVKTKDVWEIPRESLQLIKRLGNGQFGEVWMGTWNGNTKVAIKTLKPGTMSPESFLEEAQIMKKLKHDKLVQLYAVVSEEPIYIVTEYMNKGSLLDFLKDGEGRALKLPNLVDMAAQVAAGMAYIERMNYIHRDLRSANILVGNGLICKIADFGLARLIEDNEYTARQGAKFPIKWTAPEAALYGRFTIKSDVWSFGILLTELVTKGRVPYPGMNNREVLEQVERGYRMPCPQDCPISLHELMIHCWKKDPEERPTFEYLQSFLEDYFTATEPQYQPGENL
UniProt P49840: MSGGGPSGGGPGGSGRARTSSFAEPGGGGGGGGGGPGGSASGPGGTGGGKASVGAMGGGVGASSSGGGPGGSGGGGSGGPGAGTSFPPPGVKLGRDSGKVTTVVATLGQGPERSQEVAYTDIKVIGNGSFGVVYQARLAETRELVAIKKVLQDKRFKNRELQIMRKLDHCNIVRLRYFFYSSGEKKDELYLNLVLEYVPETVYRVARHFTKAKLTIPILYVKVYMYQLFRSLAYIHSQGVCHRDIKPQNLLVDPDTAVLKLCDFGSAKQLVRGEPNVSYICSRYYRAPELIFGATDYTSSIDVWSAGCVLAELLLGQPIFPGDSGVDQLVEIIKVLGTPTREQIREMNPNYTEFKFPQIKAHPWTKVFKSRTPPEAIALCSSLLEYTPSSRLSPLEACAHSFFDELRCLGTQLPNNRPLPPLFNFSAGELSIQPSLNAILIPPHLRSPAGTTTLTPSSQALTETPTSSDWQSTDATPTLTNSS

Measured: kinase-Nluc reporter destabilization hit call

COc1nn(C)cc1Nc1nccc(-c2c[nH]c3c(NC(=O)[C@@H](C)N4CCN(C)CC4)cccc23)n1 (10 µM)
inactive: [1] 0 | [2] 0 | [3] 0 | [4] 0 | [5] 0 | [6] 0 | [7] 0 | [8] 0 | [9] 0 | [10] 0 | [11] 0 | [12] 0 | [13] 0 | [14] 0 | [15] 0 | [16] 0 | [17] 0 | [18] 0 | [19] 0 | [20] 0

Cc1ccc2c(Nc3cccc(Cl)c3F)nccc2c1NC(=O)c1csc2c(N)ncnc12 [Belvarafenib] (10 µM)
inactive: [1] 0 | [2] 0 | [3] 0 | [4] 0 | [5] 0 | [6] 0 | [7] 0 | [8] 0 | [9] 0 | [10] 0 | [11] 0 | [12] 0 | [13] 0 | [14] 0 | [15] 0 | [16] 0 | [17] 0 | [18] 0 | [19] 0 | [20] 0

N[C@@H](CCC(=O)O)C(=O)N[C@@H](Cc1c[nH]c2ccccc12)C(=O)O [Oglufanide] (10 µM)
inactive: [1] 0 | [2] 0 | [3] 0 | [4] 0 | [5] 0 | [6] 0 | [7] 0 | [8] 0 | [9] 0 | [10] 0 | [11] 0 | [12] 0 | [13] 0 | [14] 0 | [15] 0 | [16] 0 | [17] 0 | [18] 0 | [19] 0 | [20] 0

COc1ccc2cc(-c3nc(-c4ccc([S+](C)[O-])cc4)[nH]c3-c3ccncc3)ccc2c1 (stereo not given) [Tie2 kinase inhibitor 1] (2.5 µM)
inactive: [1] 0 | [2] 0 | [3] 0 | [4] 0 | [5] 0 | [6] 0 | [7] 0 | [8] 0 | [9] 0 | [10] 0 | [11] 0 | [12] 0 | [13] 0 | [14] 0 | [15] 0 | [16] 0 | [17] 0 | [18] 0 | [19] 0 | [20] 0

CC[C@@](C)(Nc1ccnc(-c2c[nH]c3ncccc23)n1)C(=O)NCC(F)(F)F [Decernotinib] (10 µM)
inactive: [1] 0 | [2] 0 | [3] 0 | [4] 0 | [5] 0 | [6] 0 | [7] 0 | [8] 0 | [9] 0 | [10] 0 | [11] 0 | [12] 0 | [13] 0 | [14] 0 | [15] 0 | [16] 0 | [17] 0 | [18] 0 | [19] 0 | [20] 0

Cc1nn(C)c2c1C(c1ccc(C(F)(F)F)cc1)C(C#N)=C(N)O2 (stereo not given) (10 µM)
inactive: [1] 0 | [2] 0 | [3] 0 | [4] 0 | [5] 0 | [6] 0 | [7] 0 | [8] 0 | [9] 0 | [10] 0 | [11] 0 | [12] 0 | [13] 0 | [14] 0 | [15] 0 | [16] 0 | [17] 0 | [18] 0 | [19] 0 | [20] 0

CC(C)=CCc1c(-c2ccc(O)cc2O)oc2c3c(cc(O)c2c1=O)OC(C)(C)C=C3 [Morusin] (2.5 µM)
inactive: [1] 0 | [2] 0 | [3] 0 | [4] 0 | [5] 0 | [6] 0 | [7] 0 | [8] 0 | [9] 0 | [10] 0 | [11] 0 | [12] 0 | [13] 0 | [14] 0 | [15] 0 | [16] 0 | [17] 0 | [18] 0 | [19] 0 | [20] 0

3 compounds already listed, sorted by number of heavy atoms, largest number first.
COc1nn(C)cc1Nc1nccc(-c2c[nH]c3c(NC(=O)[C@@H](C)N4CCN(C)CC4)cccc23)n1 (10 µM)
inactive: [1] 0 | [2] 0 | [3] 0 | [4] 0 | [5] 0 | [6] 0 | [7] 0 | [8] 0 | [9] 0 | [10] 0 | [11] 0 | [12] 0 | [13] 0 | [14] 0 | [15] 0 | [16] 0 | [17] 0 | [18] 0 | [19] 0 | [20] 0

CC[C@@](C)(Nc1ccnc(-c2c[nH]c3ncccc23)n1)C(=O)NCC(F)(F)F [Decernotinib] (10 µM)
inactive: [1] 0 | [2] 0 | [3] 0 | [4] 0 | [5] 0 | [6] 0 | [7] 0 | [8] 0 | [9] 0 | [10] 0 | [11] 0 | [12] 0 | [13] 0 | [14] 0 | [15] 0 | [16] 0 | [17] 0 | [18] 0 | [19] 0 | [20] 0

N[C@@H](CCC(=O)O)C(=O)N[C@@H](Cc1c[nH]c2ccccc12)C(=O)O [Oglufanide] (10 µM)
inactive: [1] 0 | [2] 0 | [3] 0 | [4] 0 | [5] 0 | [6] 0 | [7] 0 | [8] 0 | [9] 0 | [10] 0 | [11] 0 | [12] 0 | [13] 0 | [14] 0 | [15] 0 | [16] 0 | [17] 0 | [18] 0 | [19] 0 | [20] 0

Further compounds follow:

CC(C)CNc1ccnc(NCc2csc(-c3ccccc3)n2)n1 [KHS101 hydrochloride] (2.5 µM)
inactive: [1] 0 | [2] 0 | [3] 0 | [4] 0 | [5] 0 | [6] 0 | [7] 0 | [8] 0 | [9] 0 | [10] 0 | [11] 0 | [12] 0 | [13] 0 | [14] 0 | [15] 0 | [16] 0 | [17] 0 | [18] 0 | [19] 0 | [20] 0

Oc1cc(O)c2c(c1)OC1(c3ccc(O)c(O)c3)Oc3cc(O)c4c(c3C2C1O)OC(c1ccc(O)c(O)c1)C(O)C4 (stereo not given) [Procyanidin A1] (10 µM)
inactive: [1] 0 | [2] 0 | [3] 0 | [4] 0 | [5] 0 | [6] 0 | [7] 0 | [8] 0 | [9] 0 | [10] 0 | [11] 0 | [12] 0 | [13] 0 | [14] 0 | [15] 0 | [16] 0 | [17] 0 | [18] 0 | [19] 0 | [20] 0

CCc1ccc(OCC(=O)Nc2ccc(F)c([N+](=O)[O-])c2)cc1 (10 µM)
inactive: [1] 0 | [2] 0 | [3] 0 | [4] 0 | [5] 0 | [6] 0 | [7] 0 | [8] 0 | [9] 0 | [10] 0 | [11] 0 | [12] 0 | [13] 0 | [14] 0 | [15] 0 | [16] 0 | [17] 0 | [18] 0 | [19] 0 | [20] 0

C=CC(=O)Nc1cc(Nc2nccc(-n3cc(CN(C)C)c(-c4ccccc4)n3)n2)c(OC)cc1N1CCOCC1 [Lazertinib] (10 µM)
inactive: [1] 0 | [2] 0 | [3] 0 | [4] 0 | [5] 0 | [6] 0 | [7] 0 | [8] 0 | [9] 0 | [10] 0 | [11] 0 | [12] 0 | [13] 0 | [14] 0 | [15] 0 | [16] 0 | [17] 0 | [18] 0 | [19] 0 | [20] 0

O=C(O)c1cc(N(Cc2ccccc2O)Cc2ccccc2O)ccc1O [Lavendustin B] (10 µM)
inactive: [1] 0 | [2] 0 | [3] 0 | [4] 0 | [5] 0 | [6] 0 | [7] 0 | [8] 0 | [9] 0 | [10] 0 | [11] 0 | [12] 0 | [13] 0 | [14] 0 | [15] 0 | [16] 0 | [17] 0 | [18] 0 | [19] 0 | [20] 0

O=c1cc(-c2cccc3c2Sc2ccccc2S3)oc(N2CCOCC2)c1 (10 µM)
inactive: [1] 0 | [2] 0 | [3] 0 | [4] 0 | [5] 0 | [6] 0 | [7] 0 | [8] 0 | [9] 0 | [10] 0 | [11] 0 | [12] 0 | [13] 0 | [14] 0 | [15] 0 | [16] 0 | [17] 0 | [18] 0 | [19] 0 | [20] 0

Cn1cc(C2=C(c3cccc(N)c3)C(=O)NC2=O)c2ccccc21 (10 µM)
inactive: [1] 0 | [2] 0 | [3] 0 | [4] 0 | [5] 0 | [6] 0 | [7] 0 | [8] 0 | [9] 0 | [10] 0 | [11] 0 | [12] 0 | [13] 0 | [14] 0 | [15] 0 | [16] 0 | [17] 0 | [18] 0 | [19] 0 | [20] 0

COc1ccccc1C(=O)/C=C/c1ccccc1C(=O)O (10 µM)
inactive: [1] 0 | [2] 0 | [3] 0 | [4] 0 | [5] 0 | [6] 0 | [7] 0 | [8] 0 | [9] 0 | [10] 0 | [11] 0 | [12] 0 | [13] 0 | [14] 0 | [15] 0 | [16] 0 | [17] 0 | [18] 0 | [19] 0 | [20] 0
